Laboratory results reported in the supplement of paper PMC10735217.
This is one part of the list. This data set is noisy: repeats of one test often differ as much as different tests do.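 In a drug-repurposing library screen, luminescence reads luciferase driven by eight TEAD-binding elements, stably integrated into human kidney-derived cells. Compounds scoring over five robust Z scores above the plate mean are called hits.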

Test system: HEK293A TEAD-LUC reporter
Test: TEAD-luciferase reporter activity (YAP activation), robust Z score vs plate; higher = stronger YAP/TEAD activation
Details: 24 h

Row | Compound | TEAD-luciferase reporter activity (compound concentration: 200 nM) | TEAD-luciferase reporter activity (compound concentration: 2 uM) | TEAD-luciferase reporter activity (compound concentration: 10 uM)
1 | CC(=O)c1ccc2c(c1)[C@H](NC(=O)c1ccc(F)cc1)[C@@H](O)C(C)(C)O2 [Carabersat] | inactive: -1.52 | inactive: 0.112 | inactive: -1.57
2 | CN[C@@H]1CCN(c2cc(NCC3CC3)nc(N)n2)C1 | inactive: 0.42 | inactive: -1.07 | inactive: 0.76
3 | Cn1cc(C(=O)NCc2ccc(Cl)cc2)c(=O)c2cc(CN3CCOCC3)ccc21 | inactive: 0.796 | inactive: -0.596 | inactive: -0.634
4 | Cc1nccn1-c1ccc(Sc2cccc(C3(C(N)=O)CCOCC3)c2)cc1 | inactive: -0.904 | inactive: -1.96 | inactive: 0.346
5 | NC(=O)N1C(=O)/C(=C(\O)c2cccs2)c2cc(Cl)ccc21 [Tenidap sodium] | inactive: 0.838 | inactive: 2.9 | inactive: -0.0624
6 | Cc1ccncc1Nc1ncccc1C(=O)Nc1ccc(C2(C#N)CCCC2)cc1 | inactive: -0.972 | inactive: 0.0811 | inactive: -0.0374
7 | CCn1ccc(=O)c(O)c1C | inactive: -1.19 | inactive: -1.56 | inactive: -0.294
8 | CC(=O)O[C@H]1C(=O)[C@@]2(C)[C@H]([C@H](OC(=O)c3ccccc3)[C@]3(O)C[C@H](OC(=O)[C@H](O)[C@@H](NC(=O)c4ccccc4)c4ccccc4)C(C)=C1C3(C)C)[C@]1(OC(C)=O)CO[C@@H]1C[C@@H]2O [paclitaxel, Shanghai Fudan-Zhangjiang] | inactive: -1.37 | inactive: -0.597 | inactive: -2.4
9 | CO/N=C(/N)c1ccc(CNC(=O)[C@@H]2CCN2C(=O)C(O)c2cc(Cl)cc(OC(F)F)c2)cc1 (stereo partly specified) | inactive: 0.263 | inactive: 0.264 | inactive: -0.263
10 | Cc1cc(O[C@@H](CCC(F)(F)F)c2ccc(C(=O)NCCC(=O)O)cc2)cc(C)c1-c1ccc(C(C)(C)C)cc1 | inactive: 0.667 | inactive: 1.18 | inactive: 0.981
11 | Cc1nc(NS(=O)(=O)c2ccc(N)cc2)oc1C | inactive: -1.88 | inactive: 0.201 | inactive: 2.4
12 | CC(C)CNC(=O)[C@H]1C[C@@](F)(c2ccc(CN3CCCC3)c(F)c2)C1 | inactive: -0.654 | inactive: 3.97 | inactive: 2.09
13 | CC(C)(C)S(=O)(=O)c1cc2c(Nc3ccc4scnc4c3)ncnc2cc1OCCO [RIP2 kinase inhibitor 1] | inactive: 1.5 |  | inactive: 0.718
14 | CC(=O)[C@@]1(O)CC[C@H]2[C@@H]3C=C(Cl)C4=CC(=O)CC[C@]4(C)[C@H]3CC[C@@]21C [Chlormadi] | inactive: -0.698 | inactive: 0.511 | inactive: 1.3
15 | CC(C)[C@H](NC(=O)Cn1c(-c2ccccc2)ncc(N)c1=O)C(=O)c1nnc(C(C)(C)C)o1 [Freselestat] | inactive: -1.92 | inactive: -0.233 | inactive: 1.96
16 | CC(C)[C@](O)(c1ccc2cc(OC(F)F)c(OC(F)F)cc2c1)c1c[nH]nn1 | inactive: -0.328 | inactive: 0.514 | inactive: -0.248
17 | Cc1cccn2c(=O)c(-c3nnn[nH]3)cnc12 [Pemirolast potassium] | inactive: -0.444 | inactive: 1.4 | inactive: 1.25
18 | O=c1n(CC2CO2)c(=O)n(CC2CO2)c(=O)n1CC1CO1 (stereo unspecified) [teroxirone] | inactive: -0.092 | inactive: -0.488 | inactive: -0.211
19 | c1cc(-c2nc3cc(-c4ccc5[nH]c(-c6ccncc6)nc5c4)ccc3[nH]2)ccn1 [Ridinilazole] | inactive: -1.94 | inactive: 2.9 | active: 5.67
20 | CC(=O)NCCCCCC(=O)O [zinc acexamate] | inactive: 0.524 | inactive: -0.741 | inactive: 0.00565
21 | Clc1ccccc1OCCNC1CC1 | inactive: 0.505 | inactive: -0.547 | inactive: 0.00373
22 | CCc1ccccc1CN1CCCC12Cc1ccccc1CNC2=O (stereo unspecified) | inactive: -0.575 |  | inactive: -1.95
23 | CCC(Br)(CC)C(=O)NC(=O)NC(C)=O | inactive: 1.89 | inactive: -0.587 | inactive: -1.32
24 | Cn1cc(-c2ccc3nnc(C(F)(F)c4ccc5ncccc5c4)n3n2)cn1 | inactive: -0.257 | inactive: -1.08 | inactive: 3.42
25 | CN(C)C(=O)c1cc2cnc(Nc3ccc(N4CCNCC4)cn3)nc2n1C1CCCC1 [ribociclib] | inactive: -1.18 | inactive: 0.531 | inactive: 1.49
26 | CC1(C)S[C@@H]2[C@H](NC(=O)[C@H](NC(=O)c3cnc4cccnc4c3O)c3ccccc3)C(=O)N2[C@H]1C(=O)[O-] | inactive: -0.378 | inactive: 0.558 | inactive: -1.64

Full records from above. Values in the order: TEAD-luciferase reporter activity (compound concentration: 200 nM)	TEAD-luciferase reporter activity (compound concentration: 2 uM)	TEAD-luciferase reporter activity (compound concentration: 10 uM)
CC(C)[C@H](NC(=O)Cn1c(-c2ccccc2)ncc(N)c1=O)C(=O)c1nnc(C(C)(C)C)o1 [Freselestat] as listed: inactive: -1.92	inactive: -0.233	inactive: 1.96
Cc1cc(O[C@@H](CCC(F)(F)F)c2ccc(C(=O)NCCC(=O)O)cc2)cc(C)c1-c1ccc(C(C)(C)C)cc1 as listed: inactive: 0.667	inactive: 1.18	inactive: 0.981
